Source: patent US5200335A (Forschungszentrum Juelich GmbH, priority 1990, dated 1993)
At least one compound was matched to its structure with a doubt left.

Target: T1, phenylethanol dehydrogenase (Lentilactobacillus kefiri, UniProt Q6WVP7)
T1 sequence (Q6WVP7 2-252 limits assumed): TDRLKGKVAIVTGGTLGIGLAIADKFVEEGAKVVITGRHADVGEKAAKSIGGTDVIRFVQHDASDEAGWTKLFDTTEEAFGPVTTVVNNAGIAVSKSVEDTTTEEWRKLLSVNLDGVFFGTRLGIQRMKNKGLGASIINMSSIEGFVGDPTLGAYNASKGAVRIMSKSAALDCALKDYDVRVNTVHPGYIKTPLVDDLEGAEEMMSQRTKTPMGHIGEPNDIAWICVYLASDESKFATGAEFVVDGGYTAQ
Assay: NADP+-dependent oxidation / reverse reaction with R(+)- or S(-)-phenylethanol

Question: How did the “Enzyme activity (oxidation)” value (22 mM alcohol, NADP+, 340 nm, 30° C.) turn out when `CC(O)c1ccccc1` (racemic) [(±)-Phenylethanol] was run?
Answer: The value was 2.3 U/ml.

Question: What about the Vmax (NADP+-dependent oxidations) of the same compound?
Answer: The Vmax was 17%.
